Results: PubChem BioAssay (NCATS)
The inconclusive results got no clear call from the source; some entries with a clear call stand among them for comparison. Where the call is inconclusive, the potency comes from a doubtful curve fit. Active and inactive are the calls of the source. The call rests on the fitted dose curve; in most records, active means well fitted curve in the direction sought with a large enough effect; inconclusive means small, poorly fitted or top-dose-only effect, or another doubt; inactive means no such curve, though single readings can be large; an effect the other way counts as inactive or inconclusive.

Experiment: qHTS of pediatric cancer cell lines to identify multiple opportunities for drug repurposing: Confirmatory screen for U-2 OS cells (AID 1347122); further: nearly all actives have a fitted effect of over 65% in size
Conditions: U-2 OS osteosarcoma cell viability; series mostly up to 45.9 µM
How it was run: (§1)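 Viability after 48 h compound treatment at 37C, 500-1,000 cells/well, read as ATP luminescence with CellTiter-Glo. Primary screens used 11-point (MIPE, 0.78 nM-46 µM) or 8-point (NPC, 0.59 nM-46 µM) final concentrations; follow-up screens used 11-point dilutions.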
Potency means the concentration at half of the fitted maximal effect.

Row | SMILES | Potency
1 | COc1cc(C=CC(=O)CC(=O)C=Cc2ccc(O)c(OC)c2)ccc1O | inconclusive: 53.7 µM [cytotoxic, single point]
2 | O=C(O)c1ccc(Nc2ncc3c(n2)-c2ccc(Cl)cc2C(c2c(F)cccc2F)=NC3)cc1 | active: 4.14 µM
3 | CCC(C)(C)C(=O)O[C@H]1C[C@@H](C)C=C2C=C[C@H](C)[C@H](CC[C@@H]3C[C@@H](O)CC(=O)O3)[C@H]21 | active: 10.4 µM
4 | Nc1[nH]nc2nnc(-c3c(-c4ccccc4)nn4ccccc34)cc12 | inconclusive: 32.9 µM [cytotoxic, single point]
5 | Nc1c2ccccc2nc2ccccc12 | active: 14.7 µM
6 | CO[C@@]12[C@H](COC(N)=O)C3=C(C(=O)C(C)=C(N)C3=O)N1C[C@@H]1N[C@@H]12 | inconclusive: 36.9 µM [cytotoxic, single point]

Experiment: qHTS of pediatric cancer cell lines to identify multiple opportunities for drug repurposing: Confirmatory screen for Rh41 cells (AID 1347123);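 further: 48 h compound exposure; nearly all actives have a fitted effect of over 60% in size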
Conditions: Rh41 rhabdomyosarcoma cells, viability/cytotoxicity qHTS; series mostly up to 45.9 µM
How it was run: as §1

Row | SMILES | Potency
7 | CCC(C=C[C@@H]1OC(=O)C=C[C@H]1C)=C[C@H](C)CC=CC(C)=C[C@@H](C)C(=O)[C@@H](C)[C@H](O)[C@@H](C)CC(C)=CC(=O)O | active: 0.0128 µM
8 | O=[N+]([O-])c1ccc(O)c2ncccc12 | inconclusive: 3.29 µM [cytotoxic, full curve, poor fit]
9 | C[C@@H](Oc1cc(-c2cnn(C3CCNCC3)c2)cnc1N)c1c(Cl)ccc(F)c1Cl | inconclusive: 10.4 µM [cytotoxic, full curve, poor fit]

Experiment: qHTS of pediatric cancer cell lines to identify multiple opportunities for drug repurposing: Confirmatory screen for RD cells (AID 1347124);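 further: cells exposed to compound for 48 h before viability readout; nearly all actives have a fitted effect of over 65% in size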; on activity change, negative = cytotoxic: on the % scale 0 is the no-effect control and ±100 the full control effect
Conditions: RD rhabdomyosarcoma cell viability; activity change, negative = cytotoxic: at 45.9 µM (top of the series)
How it was run: as §1

Row | SMILES | Potency | activity change, negative = cytotoxic
10 | CCCCC(CC)CN=C(N)NC(N)=NCCCCCCN=C(N)NC(N)=NCC(CC)CCCC (stereo unspecified) | active: 1.04 µM | –
11 | CC(C)C[C@H](NC(=O)CNC(=O)c1cc(Cl)ccc1Cl)B1OC(=O)CC(CC(=O)O)(C(=O)O)O1 (stereo partly specified) | active: 0.414 µM | –
12 | CC(N[C@H]1CCCC[C@H]1NC(=O)c1ccc(Cl)cc1)c1cccc2ccccc12 (stereo partly specified) | inconclusive: 36.9 µM [cytotoxic, partial curve, poor fit] | –
13 | Nc1nc2c(c(=O)[nH]1)N(C=O)[C@H](CNc1ccc(C(=O)N[C@@H](CCC(=O)O)C(=O)O)cc1)CN2 | inactive | –
14 | CC(=O)OCC(=O)[C@@]1(O)[C@H](C)C[C@H]2[C@@H]3CCC4=CC(=O)C=C[C@]4(C)[C@@]3(F)[C@@H](O)C[C@@]21C | inconclusive: 20.8 µM [cytotoxic, partial curve] | –
15 | COc1cc2ncnc(Nc3cccc(Br)c3)c2cc1OC | inconclusive: 5.22 µM [cytotoxic, partial curve] | –
16 | COc1cc(C=CC(=O)CC(=O)C=Cc2ccc(O)c(OC)c2)ccc1O | inconclusive: 33.9 µM [cytotoxic, partial curve] | –
17 | O=C(O)c1ccc(Nc2ncc3c(n2)-c2ccc(Cl)cc2C(c2c(F)cccc2F)=NC3)cc1 | inconclusive: 0.414 µM [cytotoxic, full curve, poor fit] | –
18 | COC(=O)c1ccc2c(C(=Nc3ccc(N(C)C(=O)CN4CCN(C)CC4)cc3)c3ccccc3)c(O)[nH]c2c1 | inconclusive: 32.9 µM [cytotoxic, single point] | –
19 | COc1ccc(C=Cc2cc(OC)c(OC)c(OC)c2)cc1NC(=O)[C@H](N)CO | active: 0.131 µM | –
20 | Oc1c(Cl)cc(Cl)c2cccnc12 | active: 13.1 µM | –
21 | CCC(C)(C)C(=O)O[C@H]1C[C@@H](C)C=C2C=C[C@H](C)[C@H](CC[C@@H]3C[C@@H](O)CC(=O)O3)[C@H]21 | inconclusive: 16.5 µM [cytotoxic, partial curve] | –
22 | Nc1[nH]nc2nnc(-c3c(-c4ccccc4)nn4ccccc34)cc12 | inconclusive: 32.9 µM [cytotoxic, single point] | –
23 | C#CCC(Cc1cnc2nc(N)nc(N)c2n1)c1ccc(C(=O)N[C@@H](CCC(=O)O)C(=O)O)cc1 (stereo partly specified) | active: 0.233 µM | –
24 | Cc1ccc(C(N)=O)cc1Nc1nccc(-c2cn(C(C)C)c3cnccc23)n1 | inconclusive: 24 µM [cytotoxic, full curve] | –
25 | CC[C@]1(O)C[C@@H]2CN(CCc3c([nH]c4ccccc34)[C@@](C(=O)OC)(c3cc4c(cc3OC)N(C)[C@H]3[C@@](O)(C(=O)OC)[C@H](OC(C)=O)[C@]5(CC)C=CCN6CC[C@]43[C@@H]65)C2)C1 | inconclusive: 0.329 µM [cytotoxic, full curve] | –
26 | C[C@H]1O[C@@H](O[C@H]2CC[C@@]3(C)[C@H](CC[C@@H]4[C@@H]3C[C@@H](O)[C@]3(C)[C@@H](C5=CC(=O)OC5)CC[C@]43O)C2)C[C@H](O)[C@@H]1O[C@H]1C[C@H](O)[C@H](O[C@H]2C[C@H](O)[C@H](O[C@@H]3O[C@H](CO)[C@@H](O)[C@H](O)[C@H]3O)[C@@H](C)O2)[C@@H](C)O1 | inconclusive: 0.0369 µM [cytotoxic, full curve, poor fit] | –
27 | O=[N+]([O-])c1ccc(O)c2ncccc12 | – | inconclusive: -87.8%
28 | Nc1ncnc2c1ncn2[C@@H]1O[C@H](CO)[C@@H](O)[C@@H]1O | inconclusive: 18.5 µM [cytotoxic, partial curve] | –
29 | NC(=O)Nc1cc(-c2ccc(CN3CCOCC3)cc2)sc1C(N)=O | inconclusive: 14.7 µM [cytotoxic, partial curve, poor fit] | –
30 | Cc1ncc(-c2ccnc(Nc3ccc(S(C)(=O)=O)cc3)n2)n1C(C)C | active: 5.22 µM | –
31 | COc1cc(Nc2ncc(F)c(Nc3ccc4c(n3)N(COP(=O)(O)O)C(=O)C(C)(C)O4)n2)cc(OC)c1OC | active: 16.5 µM | –
32 | C[C@@H](Oc1cc(-c2cnn(C3CCNCC3)c2)cnc1N)c1c(Cl)ccc(F)c1Cl | inconclusive: 23.3 µM [cytotoxic, partial curve, poor fit] | –
33 | Nc1c2ccccc2nc2ccccc12 | active: 3.29 µM | –
34 | Oc1cccc(-c2nc(N3CCOCC3)c3oc4ncccc4c3n2)c1 | inconclusive: 2.61 µM [cytotoxic, full curve] | –
35 | CO[C@@]12[C@H](COC(N)=O)C3=C(C(=O)C(C)=C(N)C3=O)N1C[C@@H]1N[C@@H]12 | inconclusive: 32.9 µM [cytotoxic, single point] | –
36 | CN(C)c1ccc(C(=C2C=CC(=[N+](C)C)C=C2)c2ccc(N(C)C)cc2)cc1 | active: 0.928 µM | –

Part of the list above in order of molar mass, ascending.
Row | SMILES | Potency | activity change, negative = cytotoxic
15 | COc1cc2ncnc(Nc3cccc(Br)c3)c2cc1OC | inconclusive: 5.22 µM [cytotoxic, partial curve] | –
16 | COc1cc(C=CC(=O)CC(=O)C=Cc2ccc(O)c(OC)c2)ccc1O | inconclusive: 33.9 µM [cytotoxic, partial curve] | –
11 | CC(C)C[C@H](NC(=O)CNC(=O)c1cc(Cl)ccc1Cl)B1OC(=O)CC(CC(=O)O)(C(=O)O)O1 (stereo partly specified) | active: 0.414 µM | –
